## Primary screen of a compound library

Source: ChEMBL document CHEMBL3988442, “University of Dundee, Small-Polar-MMV Screening Library” (2021).

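Assay of Toxoplasma gondii numbers, read through their beta-galactosidase reporter with a colour substrate. Tested at 50 µM. The record gives no direction; the compounds picked for IC50 retests had high values, so higher reads as fewer parasites. About 18,000 compounds were tested under these conditions; 0.94% (about 170) showed 50% or more at least once.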

Results are given as percent effect.
The record does not define 0% and 100%; most values in the screen are far below 50% and negative numbers occur (in some assays of this library far below -100).
This is an unselected part of the compounds tested.

compound,percent effect
Cn1cnc(Br)c1CO,-1.572
CNC(=O)CSCc1nc(-c2ccccc2C)no1,-0.1811
NC(=O)c1cnn(Cc2ccc3c(c2)CCC3)c1,23.05
OCCC1(NCc2ccc(F)c(F)c2)CCOCC1,38.99
CSCCC(C)(N)C#N (stereo not drawn),-5.046
CS(=O)(=O)N1CCN(Cc2cccc(Br)c2)CC1,1.441
CCN1CC(C)C(=O)N(CCN2CCOCC2)C1=O (stereo not drawn),2.644
CCS(=O)(=O)NCCc1nnc(-c2ccccc2)o1,-20.95
CC[C@H]1COCCN1C(=O)c1c(F)cc(OC)cc1F,-3.798
CCc1nnc(CN)s1,-11.1
CCCc1nnc(NCc2ccc(OC)c(O)c2)o1,-1.343
O=S(=O)(N1CCCCC1)N(Cc1cccnc1)C1CC1,-13.89
Cc1ccccc1C(=O)N1CC(=O)Nc2ccccc21,14.71
COc1c(N)c(C)nn1C,95.49
CN(C)C(=O)N1CCN(c2cccc(F)c2C#N)CC1,7.778
CCCN1CCCC(CNC(=O)c2ccn(CC)n2)C1 (stereo not drawn),26.56
COCC(C)Nc1cccc(CS(C)(=O)=O)c1 (stereo not drawn),-7.209
CN(Cc1cncs1)Cc1nccn1C,-3.083
CC(=O)c1cnnn1-c1ccccc1,-6.983
COc1ccccc1NC(=O)CCN1CCC(O)CC1,-1.06
CCC(C)(NC(=O)Nc1ncnn1C)c1nccs1 (stereo not drawn),-3.778
CN(CCS(N)(=O)=O)Cc1cccc(OC(F)(F)F)c1,0.7454
Cc1cc(C)nc(N2CCN(S(C)(=O)=O)CC2)n1,-0.2329
NC(CCO)Cc1ccccc1 (stereo not drawn),4.769
Cc1nn(C)c(Cl)c1CN(CC(N)=O)C(C)C,-0.3027
CCNC(=O)c1cc2ccccc2n1C,-19.31
CC(C)Oc1cccc(CN)c1,-12.56
CN(C)[C@@H]1CN(C(=O)c2cccnn2)C[C@H]1CO,-9.954
CCOCCOc1ccccc1NC(=O)NCCF,21.39
Cc1cnn(CCNCc2cccc(C(N)=O)c2)c1,7.197
c1cnc(N2CCCC2)c(OC2CCNC2)c1 (stereo not drawn),3.92
CCOc1cccc(NC(=O)CCOC)n1,13.97
Cc1cc(C)c(C#N)c(N2C[C@H](C3CC3)[C@@H](N)C2)n1,45.71
CCS(=O)(=O)NCCCN(C)C1CCSC1 (stereo not drawn),-2.223
O=C(NCCN1CCCC1)c1ccc2ccccc2n1,-39.8
CCN(CC(N)=O)S(=O)(=O)c1ccc2ccccc2c1,1.017
Cc1nc(C(C)NC(=O)CNC(=O)N(C)C)c(C)s1 (stereo not drawn),13.5
O=C(NC1CCNCC1)c1ccc[nH]1,2.559
CC(C)C1C(=O)NCCN1C (stereo not drawn),-7.141
NCCn1ccccc1=O,2.082
CN(CCNc1ncccc1C#N)C(=O)OC(C)(C)C,-7.418
Cc1ccc(CN)cc1S(C)(=O)=O,-5.046
CCN(CC)CCNC1=NS(=O)(=O)c2ccccc21,-4.578
CCNc1cccc(OC)c1,-5.589
COCCN(CC(N)=O)S(=O)(=O)c1cc(F)ccc1C,-9.424
Cc1ccc(CN)c(S(C)(=O)=O)c1,-4.127
CCNC(=O)N1CCC(C(=O)c2ccc(O)cc2)CC1,-1.397

The first 2 entries again:

| compound | percent effect |
|---|---|
| `Cn1cnc(Br)c1CO` | -1.572 |
| `CNC(=O)CSCc1nc(-c2ccccc2C)no1` | -0.1811 |